Reference: US6897298B2, “Method for extracting a compound from a ginseng spp. plant, ginseng or pseudo-ginseng” (priority 2001, dated 2005)
At least one structure is not confirmed: it was looked up by name or label, or the drawing left a doubt.

Key:
[1] = tested on: cerebral arteria embolisms/reperfusion injury rat model; assay: Scanning record of electroencephalogram after cerebral ischemia/reperfusion; assay type: in vivo; conditions: Nimodipine dosage 40 kg (so in the source) (p<0.05)
Protocol: (§1) Prepare cerebral arteria embolisms/reperfusion injury rat model according to Longna method. To bring the animal into a state of narcosis, give an intravenous injection of urethane (0.4 ml/100 g weight). Maintain body temperature of the rat at 37±0.5° C. (anal temperature). Let the rat lie on a plate with face toward the ceiling. Make a cut at the right middle of its neck. By means of microsurgery techniques, separate left neck communis and its branches. Isolate arteria carotis externa. By means of electric solidification, cut off occipital arteria, thyroid superia gland arteria, and arteria phyrynix externa, all of which are setting out from arteria carotis externa. Isolate arteria carotis externa further towards the head end. Tie the arteria carotis externa at a place as far as possible. Clamp the beginning part of the arteria carotis externa to make it close with an artery clamp. Tie a loose knot (with 5-0 silk thread going through the arteria carotis externa) at a place between the artery clamp and the tying thread. At a place close to the knot, cut to block the arteria carotis externa. […]
One needle-type electrode was placed at top forehead. […] Electroencephalogram change outside of skin before and after obstruction was recorded with 8-lead physiological recorder made by Japan Optical-Electric Co.

[2] = tested on: cerebral ischemia/reperfusion injury rats; assay: SOD activity in cerebral tissue homogenate (pyrogallol self-oxidation method); assay type: in vivo, rat; conditions: Compound (I) 50 mg/kg, Nimodipine 40 μg/kg iv; 5 h after reperfusion; normal 70.30±24.7 u/g, salt-water 46.7±16.6 u/g
Protocol: 38 rats were used. After making cerebral ischemia/reperfusion injury, the rats were randomly divided into groups of contrast (equal volume of physiological salt-water), Nimodipine treatment (40 μg/kg), and Compound (I) treatment (50 mg/kg). […] After another 5 minutes, drug was given iv under tongue. 60 minutes after cerebral ischemia was made, reperfusion was made. After another 5 hours, rat brains were stripped off rapidly according to Gotoh Method. Right and left brain hemispheres were weighed respectively, and were kept in fridge at −70° C.
The tissue to be measured (about 0.3˜0.5) were washed clean with physiological salt-water. Then cold distilled water was used to prepare homogenate on a glass blender. Then centrifugal machine was set at 1,500 rpm to work for 15 minutes, the temperature being 0° C. […]
(1) SOD measurement (pyrogallol self-oxidation method): Take a 15 ml test tube. […] Change of absorbance is measured under conditions of: ultra-violet spectrophotometer (UV 1601 PC, Shimatsu Co., Japan), wavelength of 325 nm, and slit of 2. Then activity units are calculated according to the following formula: Tissue homogenate SOD(u/g cerebral tissue)=(control tube−sample tube)/control tube/0.5×1/cerebral tissue weight (g)

[3] = tested on: cerebral arteria embolisms/reperfusion injury rat model; assay: Measurement of area of cerebral embolisms (TTC staining) after cerebral ischemia/reperfusion; assay type: in vivo
Protocol: as §1, with “thread.” for “thread. At a place close to the knot, cut to block the arteria carotis externa.”
Open the cranium and take the whole brain. […] The area of obstructed cerebral tissue was measured with a fully automatic image analysis system (Model IPAS-C, Kontror Co, Germany). […] For this experiment, the average value of those measured of slices 2 and 3 were taken as the measured result for each animal's area of obstruction. […]

In the case of `COCCOC(=O)C1=C(C)NC(C)=C(C(=O)OC(C)C)C1c1cccc([N+](=O)[O-])c1` (stereo not shown) [Nimodipine, reference compound], the amplitude of electroencephalogram [1] is reported as “appearance of improvement of electroencephalogram”, the “SOD activity compared with normal contrast group (false surgery)” value [2] is reported as “no significant statistics difference” and the “area of tissue infarction” value ([3]; Nimodipine treatment groups, iv, 1 h ischemia, 5 h after reperfusion) is reported as “trend of decrease of area of cerebellum tissue infarction”. For the same molecule, the “area of tissue infarction, statistics vs control” value ([3]; Nimodipine, only groups treated with great dosage (p<0.01)) was “significant statistics difference”.
